Values quoted from earlier work as cited in paper PMC4190524, “The Flux of Select NSAIDs through Silicone Membranes from Mineral Oil” (Pharmaceutics, 2014).

Design: method as in Wenkers and Lippold 1999 [6]
Conditions: log maximum flux through human skin in vivo from mineral oil; ref Wenkers and Lippold 1999 [6]; cited from earlier work

## COc1ccc2cc([C@H](C)C(=O)O)ccc2c1 [Naproxen]
  log JMHMO: −2.00 µmol cm^−2 h^−1
